Assay results as given in US10035971B2, “Method for treating algae” (STAMICARBON B.V., priority 2014, dated 2018).

Test system: wet algae
Experiment: Algal cell lysis with ionic liquid and oil extraction / transesterification
Type: cell-based
Conditions: for state of liquid phase after lysis and hexane addition / composition of recovered oil: cell lysis 80° C. 1 h; for composition of recovered oil: NMR and GC
[1] = Example 9, procedure of Example 1

| Molecule | state of liquid phase after lysis and hexane addition | composition of recovered oil | Emulsion formation [1] | Recycle [1] |
| --- | --- | --- | --- | --- |
| 1-ethyl-3-methylimidazolium ethyl sulfate [[EMIM] Ethyl Sulfate] | practically an emulsion | mainly fatty acids |  |  |
| CC(=O)[O-].CCCCn1cc[n+](C)c1 [[BMIM] Acetate, 1-butyl-3-methylimidazolium acetate] | practically an emulsion | mainly fatty acids |  |  |
| CCCC[n+]1ccn(C)c1.[Cl-] [[BMIM]Cl, 1-methyl-3-butylimidazolium chloride] | practically an emulsion | mainly fatty acids | Yes | Difficult |
